Taken from: PubChem BioAssay AID720505 (Drosophila RNAi Screening Center, 2013)

- Assay: 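Genes needed for store-operated calcium entry in fly cells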 (primary screen)
- System: Drosophila S2R+ cells
- Reagents: long dsRNA against Drosophila genes
- Challenge: thapsigargin (2 µM) in calcium-free buffer to empty internal stores, then 2 mM calcium added back
- Measured: 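Stores emptied by 2 µM thapsigargin without calcium, then 2 mM calcium re-added; fluo-4 fluorescence followed by FLIPR in 384-well plates, per-well averaged endpoint, raw; two screen passes, some wells retested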
- Scale: calcium signal and retest calcium signal: higher = more calcium entry after store depletion
- Active means: 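About 1500 genes called as lowering calcium entry, by varying amounts, judged against per-plate control wells with STIM1 as positive and Rho1 as negative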
- Calls: active = called as lowering calcium entry; inactive = not called
The deposit covers about 20,000 reagents; below is a random part of those that have a named target and a result. Over the whole deposit, about 2,100 (10%) got an active call. 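Raw plate signals without normalisation; calls rest on control-based scores that were not deposited; replicate 2 separates called from uncalled poorly.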 The numbers tell different reagents against one gene apart. Not given: the amount of reagent, the time to read-out.

target gene	reagent no.	calcium signal, replicate 1	calcium signal, replicate 2	retest calcium signal, replicate 1	retest calcium signal, replicate 2	Outcome
tHMG1 (GeneID 42650)	1	125	163			inactive
CG32181 (GeneID 317897)	1	91.5	216			inactive
CG30114 (GeneID 246465)	1	61.9	160			active
BomBc1 (GeneID 37099)	1	222	210			inactive
Or56a (GeneID 37269)	1	165	140			inactive
CG10348 (GeneID 35132)	1	76.6	94			active
CG10348 (GeneID 35132)	2	68.2	184			inactive
CG10348 (GeneID 35132)	3	118	167			inactive
CG3526 (GeneID 31277)	1	104	176			inactive
CG46301 (GeneID 34829)	1	59.2	59.7	84.9	133	active
lncRNA:yar (GeneID 10178876)	1	7458	125			inactive
lncRNA:yar (GeneID 10178876)	2	177	88.7			inactive
Msr-110 (GeneID 38629)	1	90	106			inactive
CG2898 (GeneID 31966)	1	63.2	98			inactive
CG32104 (GeneID 39413)	1	80.9	62.3			inactive
CG32104 (GeneID 39413)	2	119	85.1			inactive
armi (GeneID 38427)	1	123	104			inactive
Adgf-E (GeneID 36627)	1	102	178			inactive
CG15202 (GeneID 32052)	1	122	85.4			inactive
mtd (GeneID 45467)	1	115	92.9			inactive
mtd (GeneID 45467)	2	99.1	129			inactive
mtd (GeneID 45467)	3	143	168			inactive
Adf1 (GeneID 47082)	1	104	87.2			inactive
Adf1 (GeneID 47082)	2	187	90.2			inactive
Start1 (GeneID 37927)	1	149	91.7			inactive
Pi3K92E (GeneID 42446)	1	155	214			inactive
CG11878 (GeneID 43050)	1	215	138			inactive
Pp2B-14D (GeneID 32624)	1	56.4	127			active
Pp2B-14D (GeneID 32624)	2	117	161			inactive
r-l (GeneID 42493)	1	156	255	7548	148	inactive
r-l (GeneID 42493)	2	111	133			inactive
trbl (GeneID 43999)	1	92.5	109			inactive
CG5515 (GeneID 42875)	1	211	206			inactive
CG4577 (GeneID 33291)	1	189	143			inactive
